Results on two sequences are retold here after PMC12205368.

By UniProt entry, the sequences of proteins in these tests, tags left out. Residues count along the entry.
UniProt Q04637, 748-993: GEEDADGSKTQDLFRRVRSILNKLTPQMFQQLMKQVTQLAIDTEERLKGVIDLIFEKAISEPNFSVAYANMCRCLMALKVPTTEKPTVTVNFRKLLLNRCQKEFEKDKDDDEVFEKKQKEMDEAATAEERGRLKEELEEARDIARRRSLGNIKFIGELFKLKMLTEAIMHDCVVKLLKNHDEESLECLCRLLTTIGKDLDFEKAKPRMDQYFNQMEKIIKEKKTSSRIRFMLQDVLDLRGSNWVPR

The data set addresses eIF4G1-HEAT1 (UniProt Q04637). As to the kind of experiment: EMSA. The following applies: 5 mM Mg2+, 1 mM ATP, 10 mM sodium phosphate pH 7.5, 300 mM NaCl, 2 mM beta-mercaptoethanol, 5 mM MgCl2, 5% glycerol, room temperature, 15 min, 20% acrylamide gel, 0.5x TBE, recombinant protein. On the technique in general: In EMSA bound probe runs differently from free probe, usually more slowly.

One may read the Kd as the free concentration of one partner at which half of the binding sites on the other are occupied at equilibrium, for simple one-to-one binding.

Construct, isoform or probe ends are uncertain for at least one entry.

For the sequence GGGUUAGGGUUAGGGUUUGGG [r 5YEY], where the note is “RNA version of d 5YEY, 5' phosphate not stated for the RNA, letters put together from the description”, the Kd was found to be 1.31 µM.

As to “GGTGGTGGTGGTTGTGGTGGTGGTGG [d AGRO100 (AS1411)]”, the Kd (5' phosphate, folded or branched DNA) amounted to 0.725 µM.
